PubChem BioAssay AID1259308 – NCATS, 2017
The deposit covers about 59,000 reagents; this is a random part of them. About 1,510 of them (2.6%) were called active. 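Calls use total luciferase alone and ignore viability, so some active siRNAs may act by altering cell number.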 Entries without a mark were called inactive. Reagents against one gene are numbered here. Further read-outs or replicates are left out here.

Aim: 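Candidate targets for better recombinant protein yield in mammalian cells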 (primary screen)
Cell system: human HEK293 embryonic kidney cells stably expressing firefly luciferase (HEK-CMV-Luc2-Hygro)
Knock-down reagent: single siRNA against human genes, 0.8 pmol siRNA per well
Duration: 72 h
Measurement: 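Reporter luminescence and viable-cell signal on separate replicate plates, given as percent of non-targeting control and median/MAD z-scores, plus per-cell luciferase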
Reading the numbers: total luciferase, z-score: higher = more reporter protein produced
Active means: 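An siRNA counts as active if its total luciferase robust z-score exceeds 3; genes with two or more such siRNAs out of three were retested with fresh siRNAs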
Calls: active = raised luciferase; inactive = no rise

Against LINC01829 #1, the entry reads total luciferase, z-score -1.64.
With knock-down of LINC01829 #2 the results were total luciferase, z-score -0.951.
After knock-down of LINC01829 #3 the results were total luciferase, z-score -1.47.
With knock-down of COL5A1 #1, the screen gave total luciferase, z-score 0.7.
Against COL5A1 #2, the entry reads total luciferase, z-score 0.296.
After knock-down of COL5A1 #3, the record shows total luciferase, z-score 0.728.
For BANK1 #1 the deposit lists total luciferase, z-score 5.01 (active).
After knock-down of BANK1 #2, the screen gave total luciferase, z-score -0.547.
Knock-down of BANK1 #3 gave: total luciferase, z-score 1.7.
With knock-down of OSBPL8 #1 the results were total luciferase, z-score 2.45.
Against OSBPL8 #2, the values are total luciferase, z-score 0.478.
Depletion of OSBPL8 #3 came out at: total luciferase, z-score -0.131.
Knock-down of FBXW10 #1 gave: total luciferase, z-score 0.184.
For FBXW10 #2 the deposit lists total luciferase, z-score -1.51.
FBXW10 #3 scored total luciferase, z-score 0.531.
DRC8 #1 scored total luciferase, z-score 1.72.
After knock-down of DRC8 #2 the results were total luciferase, z-score -0.684.
DRC8 #3 showed total luciferase, z-score -0.852.
After knock-down of NUTM2F #1 the results were total luciferase, z-score 0.0557.
Knock-down of NUTM2F #2 gave: total luciferase, z-score -1.09.
NUTM2F #3 showed total luciferase, z-score 0.0996.
Against C8orf34 #1, the entry reads total luciferase, z-score -0.114.
After knock-down of C8orf34 #2, the record shows total luciferase, z-score 1.58.
After knock-down of C8orf34 #3 the results were total luciferase, z-score -0.277.
Knock-down of EXOC3L4 #1 gave: total luciferase, z-score 2.66.
EXOC3L4 #2 showed total luciferase, z-score 1.42.
After knock-down of EXOC3L4 #3, the record shows total luciferase, z-score 0.802.
Knock-down of ZNF529 #1 resulted in: total luciferase, z-score 0.473.
Against ZNF529 #2, the entry reads total luciferase, z-score -0.996.
ZNF529 #3 showed total luciferase, z-score -0.408.
NTRK1 #1 gave total luciferase, z-score 1.16.
NTRK1 #2 gave total luciferase, z-score 1.01.
After knock-down of NTRK1 #3, the screen gave total luciferase, z-score 0.124.
EBF4 #1 showed total luciferase, z-score -0.575.
EBF4 #2 showed total luciferase, z-score 0.758.
EBF4 #3 gave total luciferase, z-score 2.56.
For ADAM9 #1 the deposit lists total luciferase, z-score 2.14.
After knock-down of ADAM9 #2 the results were total luciferase, z-score -0.77.
Depletion of ADAM9 #3 gave: total luciferase, z-score -1.12.
Silencing of PPP1CC #1 resulted in: total luciferase, z-score -1.64.
After knock-down of PPP1CC #2 the results were total luciferase, z-score -0.561.
PPP1CC #3 showed total luciferase, z-score -0.33.

Reformatted: results already given
{"gene": "NUTM2F", "reagent no.": 2, "total luciferase, z-score": -1.09}
{"gene": "NUTM2F", "reagent no.": 3, "total luciferase, z-score": 0.0996}
{"gene": "C8orf34", "reagent no.": 1, "total luciferase, z-score": -0.114}
{"gene": "C8orf34", "reagent no.": 2, "total luciferase, z-score": 1.58}
{"gene": "C8orf34", "reagent no.": 3, "total luciferase, z-score": -0.277}
{"gene": "EXOC3L4", "reagent no.": 1, "total luciferase, z-score": 2.66}
{"gene": "EXOC3L4", "reagent no.": 2, "total luciferase, z-score": 1.42}
